# Test results: the supplement of paper PMC10032668
# Protein sequences, listed by entry. Tags and fused reporters are not part of them.
# EIF3J, O75822, UniProt O75822, whole entry: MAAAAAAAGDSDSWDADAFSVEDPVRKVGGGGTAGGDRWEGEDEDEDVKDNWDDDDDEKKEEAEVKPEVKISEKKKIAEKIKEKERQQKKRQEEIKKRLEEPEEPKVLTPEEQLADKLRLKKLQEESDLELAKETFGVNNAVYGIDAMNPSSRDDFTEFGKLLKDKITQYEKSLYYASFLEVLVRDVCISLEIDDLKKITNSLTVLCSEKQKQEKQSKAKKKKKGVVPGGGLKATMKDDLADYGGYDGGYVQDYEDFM
# EIF4B, P23588, UniProt P23588, whole entry: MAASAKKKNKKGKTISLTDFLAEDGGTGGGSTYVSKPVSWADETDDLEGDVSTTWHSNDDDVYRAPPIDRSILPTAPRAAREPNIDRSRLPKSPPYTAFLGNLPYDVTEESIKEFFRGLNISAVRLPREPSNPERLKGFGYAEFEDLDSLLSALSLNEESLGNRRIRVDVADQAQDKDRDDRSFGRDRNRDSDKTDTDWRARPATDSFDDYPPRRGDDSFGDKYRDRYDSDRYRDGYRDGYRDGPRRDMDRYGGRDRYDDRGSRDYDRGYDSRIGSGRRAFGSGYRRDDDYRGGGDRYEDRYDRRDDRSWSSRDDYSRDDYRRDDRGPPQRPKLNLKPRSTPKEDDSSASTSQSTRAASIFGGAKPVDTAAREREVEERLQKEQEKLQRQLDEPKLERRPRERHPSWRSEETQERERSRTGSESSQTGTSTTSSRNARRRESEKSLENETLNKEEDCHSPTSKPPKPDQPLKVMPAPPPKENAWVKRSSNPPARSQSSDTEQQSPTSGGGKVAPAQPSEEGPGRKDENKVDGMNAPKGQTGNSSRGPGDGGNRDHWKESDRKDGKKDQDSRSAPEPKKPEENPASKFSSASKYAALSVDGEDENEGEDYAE
# FABP5, Q01469, UniProt Q01469, whole entry: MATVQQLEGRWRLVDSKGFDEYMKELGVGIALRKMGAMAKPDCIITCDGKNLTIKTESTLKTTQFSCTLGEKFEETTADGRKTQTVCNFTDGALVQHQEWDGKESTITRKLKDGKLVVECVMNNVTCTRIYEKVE
# POM121, Q96HA1, UniProt Q96HA1, whole entry: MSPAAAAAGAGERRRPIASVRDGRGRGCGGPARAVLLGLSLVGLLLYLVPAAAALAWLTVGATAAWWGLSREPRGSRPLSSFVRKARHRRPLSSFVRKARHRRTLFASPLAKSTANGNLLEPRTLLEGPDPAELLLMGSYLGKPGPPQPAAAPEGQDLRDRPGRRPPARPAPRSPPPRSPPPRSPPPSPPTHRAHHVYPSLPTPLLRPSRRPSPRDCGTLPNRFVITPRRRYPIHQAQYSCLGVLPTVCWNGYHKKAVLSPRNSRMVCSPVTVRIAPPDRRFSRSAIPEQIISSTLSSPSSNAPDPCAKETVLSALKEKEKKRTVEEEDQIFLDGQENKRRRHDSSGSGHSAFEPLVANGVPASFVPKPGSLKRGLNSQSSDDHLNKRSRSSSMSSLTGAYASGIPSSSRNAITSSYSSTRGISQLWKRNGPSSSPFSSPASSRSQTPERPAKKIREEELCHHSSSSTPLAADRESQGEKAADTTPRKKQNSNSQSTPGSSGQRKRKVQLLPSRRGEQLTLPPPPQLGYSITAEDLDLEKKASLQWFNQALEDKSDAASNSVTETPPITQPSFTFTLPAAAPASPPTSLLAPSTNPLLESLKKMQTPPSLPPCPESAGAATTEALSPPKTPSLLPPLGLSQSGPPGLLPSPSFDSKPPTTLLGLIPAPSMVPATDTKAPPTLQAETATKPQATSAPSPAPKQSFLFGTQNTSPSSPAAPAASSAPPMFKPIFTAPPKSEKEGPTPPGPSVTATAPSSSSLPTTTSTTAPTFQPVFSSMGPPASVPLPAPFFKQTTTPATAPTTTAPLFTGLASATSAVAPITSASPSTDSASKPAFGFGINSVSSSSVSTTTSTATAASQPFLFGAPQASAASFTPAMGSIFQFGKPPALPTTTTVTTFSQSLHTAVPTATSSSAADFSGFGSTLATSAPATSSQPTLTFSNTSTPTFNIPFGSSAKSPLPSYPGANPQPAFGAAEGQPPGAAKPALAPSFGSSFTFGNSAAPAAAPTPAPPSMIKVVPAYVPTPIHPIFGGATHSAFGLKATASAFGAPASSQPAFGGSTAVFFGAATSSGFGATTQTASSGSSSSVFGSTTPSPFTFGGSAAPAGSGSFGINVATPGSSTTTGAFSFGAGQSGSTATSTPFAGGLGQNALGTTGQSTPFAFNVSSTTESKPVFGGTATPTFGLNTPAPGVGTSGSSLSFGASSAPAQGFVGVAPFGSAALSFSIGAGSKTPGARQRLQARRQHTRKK
# POM121C, A8CG34, UniProt A8CG34, whole entry: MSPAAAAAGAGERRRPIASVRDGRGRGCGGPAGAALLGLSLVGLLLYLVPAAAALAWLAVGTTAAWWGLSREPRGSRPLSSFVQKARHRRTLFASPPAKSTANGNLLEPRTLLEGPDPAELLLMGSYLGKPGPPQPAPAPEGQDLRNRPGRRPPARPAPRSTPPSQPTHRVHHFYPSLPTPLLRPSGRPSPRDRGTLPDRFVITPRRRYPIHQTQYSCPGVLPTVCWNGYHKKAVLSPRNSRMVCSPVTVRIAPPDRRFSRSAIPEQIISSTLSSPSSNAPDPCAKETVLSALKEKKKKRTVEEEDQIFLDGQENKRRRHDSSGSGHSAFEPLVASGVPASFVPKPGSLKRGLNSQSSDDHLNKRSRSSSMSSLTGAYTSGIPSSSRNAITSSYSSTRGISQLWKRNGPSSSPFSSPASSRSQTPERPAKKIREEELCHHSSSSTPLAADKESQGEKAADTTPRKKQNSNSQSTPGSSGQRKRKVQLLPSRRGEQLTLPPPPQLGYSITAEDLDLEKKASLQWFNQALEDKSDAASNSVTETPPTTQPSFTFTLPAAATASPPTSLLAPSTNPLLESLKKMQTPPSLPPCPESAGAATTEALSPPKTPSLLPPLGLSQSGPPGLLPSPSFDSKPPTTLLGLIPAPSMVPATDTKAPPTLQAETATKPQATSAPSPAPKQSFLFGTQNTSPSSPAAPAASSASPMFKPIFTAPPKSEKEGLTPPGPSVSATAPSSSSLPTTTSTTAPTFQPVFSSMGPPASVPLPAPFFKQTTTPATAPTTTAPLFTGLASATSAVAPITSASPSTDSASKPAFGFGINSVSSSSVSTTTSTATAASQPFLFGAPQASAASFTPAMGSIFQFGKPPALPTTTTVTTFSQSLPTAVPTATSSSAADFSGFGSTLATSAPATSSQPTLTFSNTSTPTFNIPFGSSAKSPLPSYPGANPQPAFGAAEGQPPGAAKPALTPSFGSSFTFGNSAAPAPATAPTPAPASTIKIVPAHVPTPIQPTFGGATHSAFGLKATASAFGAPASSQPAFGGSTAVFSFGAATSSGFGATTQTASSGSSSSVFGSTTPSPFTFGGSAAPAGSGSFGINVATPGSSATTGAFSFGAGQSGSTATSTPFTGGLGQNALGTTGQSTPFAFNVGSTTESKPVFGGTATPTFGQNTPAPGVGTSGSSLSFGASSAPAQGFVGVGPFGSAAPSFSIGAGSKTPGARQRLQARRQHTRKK
# PSMD1, Q99460, UniProt Q99460, whole entry: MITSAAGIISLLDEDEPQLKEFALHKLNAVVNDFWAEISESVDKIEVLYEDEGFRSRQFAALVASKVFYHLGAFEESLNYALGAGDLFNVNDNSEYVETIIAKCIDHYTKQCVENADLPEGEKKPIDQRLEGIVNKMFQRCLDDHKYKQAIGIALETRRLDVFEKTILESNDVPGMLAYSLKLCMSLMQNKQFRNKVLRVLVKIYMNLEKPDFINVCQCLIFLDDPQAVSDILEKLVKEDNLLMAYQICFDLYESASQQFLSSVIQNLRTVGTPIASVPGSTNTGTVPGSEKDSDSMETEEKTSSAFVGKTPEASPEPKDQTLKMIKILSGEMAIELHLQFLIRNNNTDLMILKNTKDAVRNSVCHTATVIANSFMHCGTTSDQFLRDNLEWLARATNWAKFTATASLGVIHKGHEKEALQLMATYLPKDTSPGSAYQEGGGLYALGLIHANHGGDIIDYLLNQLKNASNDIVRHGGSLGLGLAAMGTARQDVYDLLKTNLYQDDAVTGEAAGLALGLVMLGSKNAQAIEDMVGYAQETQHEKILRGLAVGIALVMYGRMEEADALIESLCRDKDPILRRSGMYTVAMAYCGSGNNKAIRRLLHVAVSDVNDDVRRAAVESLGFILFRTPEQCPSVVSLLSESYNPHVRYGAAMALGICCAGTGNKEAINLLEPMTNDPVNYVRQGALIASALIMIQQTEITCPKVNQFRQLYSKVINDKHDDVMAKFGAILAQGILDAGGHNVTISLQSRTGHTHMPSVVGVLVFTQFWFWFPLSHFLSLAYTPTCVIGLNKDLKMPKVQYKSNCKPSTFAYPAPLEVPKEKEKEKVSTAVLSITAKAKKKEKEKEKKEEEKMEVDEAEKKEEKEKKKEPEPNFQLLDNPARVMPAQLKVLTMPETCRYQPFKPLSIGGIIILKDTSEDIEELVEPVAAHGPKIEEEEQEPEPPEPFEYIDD
# SNRPA, P09012, UniProt P09012, whole entry: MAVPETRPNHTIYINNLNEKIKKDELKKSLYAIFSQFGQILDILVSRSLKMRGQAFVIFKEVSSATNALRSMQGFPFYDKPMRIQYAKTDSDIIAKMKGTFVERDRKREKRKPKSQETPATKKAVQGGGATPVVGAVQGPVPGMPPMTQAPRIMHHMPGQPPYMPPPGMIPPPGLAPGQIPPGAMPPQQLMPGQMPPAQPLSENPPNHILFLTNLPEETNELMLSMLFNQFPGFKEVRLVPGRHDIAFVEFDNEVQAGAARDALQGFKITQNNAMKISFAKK
# CD2AP, Q9Y5K6, UniProt Q9Y5K6, whole entry: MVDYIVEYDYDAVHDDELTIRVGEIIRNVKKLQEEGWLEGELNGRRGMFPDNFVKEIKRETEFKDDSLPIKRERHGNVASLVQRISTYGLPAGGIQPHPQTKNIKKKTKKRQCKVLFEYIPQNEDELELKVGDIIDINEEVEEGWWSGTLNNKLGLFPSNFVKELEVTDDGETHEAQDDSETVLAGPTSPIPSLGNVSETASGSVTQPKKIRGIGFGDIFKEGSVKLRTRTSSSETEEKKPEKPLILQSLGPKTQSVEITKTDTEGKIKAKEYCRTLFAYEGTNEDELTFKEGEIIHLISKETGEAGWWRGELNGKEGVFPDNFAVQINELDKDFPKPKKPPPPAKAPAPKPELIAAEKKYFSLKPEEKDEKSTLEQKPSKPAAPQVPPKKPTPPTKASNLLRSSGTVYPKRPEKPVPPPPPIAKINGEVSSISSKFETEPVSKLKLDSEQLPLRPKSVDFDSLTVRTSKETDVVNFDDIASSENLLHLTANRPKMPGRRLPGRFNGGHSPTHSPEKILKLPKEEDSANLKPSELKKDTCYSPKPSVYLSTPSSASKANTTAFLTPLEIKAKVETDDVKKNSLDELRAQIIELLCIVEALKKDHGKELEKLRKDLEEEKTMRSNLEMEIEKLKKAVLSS
# COX7A2, P14406, UniProt P14406, whole entry: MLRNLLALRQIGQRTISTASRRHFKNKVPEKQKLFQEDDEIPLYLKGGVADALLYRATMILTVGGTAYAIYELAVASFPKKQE
# HIST1H1E, P10412, UniProt P10412, whole entry: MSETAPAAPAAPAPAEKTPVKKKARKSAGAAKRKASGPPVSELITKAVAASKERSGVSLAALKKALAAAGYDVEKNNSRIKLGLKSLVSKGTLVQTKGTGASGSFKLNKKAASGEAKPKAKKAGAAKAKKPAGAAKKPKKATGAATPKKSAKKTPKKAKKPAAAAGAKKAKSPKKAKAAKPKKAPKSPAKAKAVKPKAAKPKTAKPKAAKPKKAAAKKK
# PARK7, Q99497, UniProt Q99497, whole entry: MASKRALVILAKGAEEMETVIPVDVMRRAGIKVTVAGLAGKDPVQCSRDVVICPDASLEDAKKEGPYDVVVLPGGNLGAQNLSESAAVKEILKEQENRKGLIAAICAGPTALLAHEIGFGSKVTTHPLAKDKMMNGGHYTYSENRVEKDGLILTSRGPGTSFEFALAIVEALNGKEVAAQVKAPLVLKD
# TUBG1, P23258, UniProt P23258, whole entry: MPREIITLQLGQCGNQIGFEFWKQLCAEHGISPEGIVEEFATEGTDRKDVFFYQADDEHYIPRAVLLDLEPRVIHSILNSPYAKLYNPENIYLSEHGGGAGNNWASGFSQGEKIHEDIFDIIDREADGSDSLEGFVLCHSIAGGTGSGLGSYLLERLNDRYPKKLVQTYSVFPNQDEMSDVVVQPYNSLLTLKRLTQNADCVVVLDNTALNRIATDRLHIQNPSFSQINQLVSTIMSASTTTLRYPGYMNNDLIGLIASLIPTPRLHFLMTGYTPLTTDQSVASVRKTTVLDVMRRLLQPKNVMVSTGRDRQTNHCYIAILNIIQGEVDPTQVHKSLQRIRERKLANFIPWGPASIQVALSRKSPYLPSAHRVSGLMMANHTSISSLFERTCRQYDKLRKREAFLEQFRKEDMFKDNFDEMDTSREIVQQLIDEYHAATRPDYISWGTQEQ
# The other results are listed elsewhere or left out. Only hits are listed; about a third recur on repeated control peptides.
# Tests used:
# Test in all cases: PRISMA enrichment of interactor (LFQ) in peptide spot vs all other peptide spots (log2 fold change); higher = stronger / more specific binding of the interactor to the peptide
# [1] = target: ACP1, P24666
# Procedure: (§1)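 PRISMA: 15-aa overlapping tiles (offset 8 aa) of 60 microproteins, plus SOS1/GLUT1 control peptides, were spot-synthesized on cellulose membranes in triplicate. Membranes were incubated with benzonase-treated HEK293T lysate, and bound proteins were identified by LC-MS/MS with LFQ. Enrichment is the log2 fold change of each protein in one spot versus all other spots. Only interactors passing the significance cutoff are listed.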
# [2] = target: AKAP1, Q92667
# Procedure: as §1
# [3] = target: ARCN1, P48444
# Procedure: as §1
# [4] = target: CBSL
# Procedure: as §1
# [5] = target: CCDC137, Q6PK04
# Procedure: as §1
# [6] = target: CCDC59, Q9P031
# Procedure: as §1
# [7] = target: CD2BP2, O95400
# Procedure: as §1
# [8] = target: CDC45, O75419
# Procedure: as §1
# [9] = target: COPG2, Q9UBF2
# Procedure: as §1
# [10] = target: CTNND1, O60716
# Procedure: as §1
# [11] = target: DEK, P35659
# Procedure: as §1
# [12] = target: DPM3, Q9P2X0
# Procedure: as §1
# [13] = target: EEF1AKNMT, Q8N6R0
# Procedure: as §1
# [14] = target: EIF3J, O75822
# Procedure: as §1
# [15] = target: EIF4B, P23588
# Procedure: as §1
# [16] = target: EXOC8, Q8IYI6
# Procedure: as §1
# [17] = target: FABP5, Q01469
# Procedure: as §1
# [18] = target: GALK1, P51570
# Procedure: as §1
# [19] = target: HNRNPH2, P55795
# Procedure: as §1
# [20] = target: HYOU1, Q9Y4L1
# Procedure: as §1
# [21] = target: KTN1, Q86UP2
# Procedure: as §1
# [22] = target: MAGT1, Q9H0U3
# Procedure: as §1
# [23] = target: MAZ, P56270
# Procedure: as §1
# [24] = target: MRPL14, Q6P1L8
# Procedure: as §1
# [25] = target: MTPAP, Q9NVV4
# Procedure: as §1
# [26] = target: NAP1L4, Q99733
# Procedure: as §1
# [27] = target: OXA1L, Q15070
# Procedure: as §1
# [28] = target: P3H1, Q32P28
# Procedure: as §1
# [29] = target: PAF1, Q8N7H5
# Procedure: as §1
# [30] = target: PCM1, Q15154
# Procedure: as §1
# [31] = target: PDCD6IP, Q8WUM4
# Procedure: as §1
# [32] = target: PDS5B, Q9NTI5
# Procedure: as §1
# [33] = target: PLS3, P13797
# Procedure: as §1
# [34] = target: POM121, Q96HA1
# Procedure: as §1
# [35] = target: POM121C, A8CG34
# Procedure: as §1
# [36] = target: PSMD1, Q99460
# Procedure: as §1
# [37] = target: RAE1, P78406
# Procedure: as §1
# [38] = target: RALY, Q9UKM9
# Procedure: as §1
# [39] = target: RPUSD4, Q96CM3
# Procedure: as §1
# [40] = target: SCYL2, Q6P3W7
# Procedure: as §1
# [41] = target: SEC16A, O15027
# Procedure: as §1
# [42] = target: SNRPA, P09012
# Procedure: as §1
# [43] = target: SPAG5, Q96R06
# Procedure: as §1
# [44] = target: SQSTM1, Q13501
# Procedure: as §1
# [45] = target: TAGLN2, P37802
# Procedure: as §1
# [46] = target: TMTC3, Q6ZXV5
# Procedure: as §1
# [47] = target: USP34, Q70CQ2
# Procedure: as §1
# [48] = target: UTP18, Q9Y5J1
# Procedure: as §1
# [49] = target: ZNF281, Q9Y2X9
# Procedure: as §1
# [50] = target: ANP32A, P39687
# Procedure: as §1
# [51] = target: ARHGEF7, Q14155
# Procedure: as §1
# [52] = target: ASCC3, Q8N3C0
# Procedure: as §1
# [53] = target: BIN1, O00499
# Procedure: as §1
# [54] = target: CD2AP, Q9Y5K6
# Procedure: as §1
# [55] = target: CGGBP1, Q9UFW8
# Procedure: as §1
# [56] = target: CLPTM1, O96005
# Procedure: as §1
# [57] = target: COX7A2, P14406
# Procedure: as §1
# [58] = target: EPS15L1, Q9UBC2
# Procedure: as §1
# [59] = target: FADS1, O60427
# Procedure: as §1
# [60] = target: GRB2, P62993
# Procedure: as §1
# [61] = target: GTPBP10, A4D1E9
# Procedure: as §1
# [62] = target: HIST1H1E, P10412
# Procedure: as §1
# [63] = target: NCK1, P16333
# Procedure: as §1
# [64] = target: NOM1, Q5C9Z4
# Procedure: as §1
# [65] = target: PACSIN2, Q9UNF0
# Procedure: as §1
# [66] = target: PACSIN3, Q9UKS6
# Procedure: as §1
# [67] = target: PARK7, Q99497
# Procedure: as §1
# [68] = target: PRIM1, P49642
# Procedure: as §1
# [69] = target: PSMA7, O14818
# Procedure: as §1
# [70] = target: RBM12B, Q8IXT5
# Procedure: as §1
# [71] = target: RUSC1, Q9BVN2
# Procedure: as §1
# [72] = target: SH3GL1, Q99961
# Procedure: as §1
# [73] = target: SNX9, Q9Y5X1
# Procedure: as §1
# [74] = target: TUBG1, P23258
# Procedure: as §1
binder,measurement,setting,value
SRTAGPAATWTGIQR [TBX5-AS1],PRISMA enrichment of interactor (log2),[1],7.49
same,PRISMA enrichment of interactor (log2),[2],4.86
same,PRISMA enrichment of interactor (log2),[3],4.39
same,PRISMA enrichment of interactor (log2),[4],5.45
same,PRISMA enrichment of interactor (log2),[5],5.63
same,PRISMA enrichment of interactor (log2),[6],4.43
same,PRISMA enrichment of interactor (log2),[7],4.02
same,PRISMA enrichment of interactor (log2),[8],4.33
same,PRISMA enrichment of interactor (log2),[9],4.44
same,PRISMA enrichment of interactor (log2),[10],6.37
same,PRISMA enrichment of interactor (log2),[11],4.55
same,PRISMA enrichment of interactor (log2),[12],5.22
same,PRISMA enrichment of interactor (log2),[13],5.49
same,PRISMA enrichment of interactor (log2),[14],5.46
same,PRISMA enrichment of interactor (log2),[15],6.15
same,PRISMA enrichment of interactor (log2),[16],4.61
same,PRISMA enrichment of interactor (log2),[17],7.85
same,PRISMA enrichment of interactor (log2),[18],5.07
same,PRISMA enrichment of interactor (log2),[19],7.82
same,PRISMA enrichment of interactor (log2),[20],8.25
same,PRISMA enrichment of interactor (log2),[21],4.16
same,PRISMA enrichment of interactor (log2),[22],7.75
same,PRISMA enrichment of interactor (log2),[23],7.66
same,PRISMA enrichment of interactor (log2),[24],5.05
same,PRISMA enrichment of interactor (log2),[25],4.96
same,PRISMA enrichment of interactor (log2),[26],5.94
same,PRISMA enrichment of interactor (log2),[27],7.23
same,PRISMA enrichment of interactor (log2),[28],7.37
same,PRISMA enrichment of interactor (log2),[29],5.1
same,PRISMA enrichment of interactor (log2),[30],4.19
same,PRISMA enrichment of interactor (log2),[31],4.63
same,PRISMA enrichment of interactor (log2),[32],7.85
same,PRISMA enrichment of interactor (log2),[33],6.54
same,PRISMA enrichment of interactor (log2),[34],7.39
same,PRISMA enrichment of interactor (log2),[35],6.3
same,PRISMA enrichment of interactor (log2),[36],5.55
same,PRISMA enrichment of interactor (log2),[37],5.29
same,PRISMA enrichment of interactor (log2),[38],7.29
same,PRISMA enrichment of interactor (log2),[39],5.33
same,PRISMA enrichment of interactor (log2),[40],3.81
same,PRISMA enrichment of interactor (log2),[41],4.54
same,PRISMA enrichment of interactor (log2),[42],4.94
same,PRISMA enrichment of interactor (log2),[43],4.02
same,PRISMA enrichment of interactor (log2),[44],6.89
same,PRISMA enrichment of interactor (log2),[45],5.27
same,PRISMA enrichment of interactor (log2),[46],4.51
same,PRISMA enrichment of interactor (log2),[47],4.17
same,PRISMA enrichment of interactor (log2),[48],5.14
same,PRISMA enrichment of interactor (log2),[49],6
EVPVPPPVPPRRRP [SOS1_WT_2],PRISMA enrichment of interactor (log2),[1],4.93
same,PRISMA enrichment of interactor (log2),[50],6.02
same,PRISMA enrichment of interactor (log2),[51],3.62
same,PRISMA enrichment of interactor (log2),[52],5.35
same,PRISMA enrichment of interactor (log2),[53],4.12
same,PRISMA enrichment of interactor (log2),[54],6.42
same,PRISMA enrichment of interactor (log2),[55],5.31
same,PRISMA enrichment of interactor (log2),[56],4.44
same,PRISMA enrichment of interactor (log2),[57],4.67
same,PRISMA enrichment of interactor (log2),[58],3.81
same,PRISMA enrichment of interactor (log2),[59],5.37
same,PRISMA enrichment of interactor (log2),[60],7.04
same,PRISMA enrichment of interactor (log2),[61],5.27
same,PRISMA enrichment of interactor (log2),[62],5.53
same,PRISMA enrichment of interactor (log2),[63],3.76
same,PRISMA enrichment of interactor (log2),[64],7.11
same,PRISMA enrichment of interactor (log2),[65],7.74
same,PRISMA enrichment of interactor (log2),[66],4.32
same,PRISMA enrichment of interactor (log2),[67],5.11
same,PRISMA enrichment of interactor (log2),[68],4.89
same,PRISMA enrichment of interactor (log2),[69],6.16
same,PRISMA enrichment of interactor (log2),[70],6.85
same,PRISMA enrichment of interactor (log2),[71],6.32
same,PRISMA enrichment of interactor (log2),[72],6.06
same,PRISMA enrichment of interactor (log2),[73],4.4
same,PRISMA enrichment of interactor (log2),[74],5.44

# Another view of some results above.
binder	measurement	setting	value
SRTAGPAATWTGIQR [TBX5-AS1]	PRISMA enrichment of interactor (log2)	[47]	4.17
same	PRISMA enrichment of interactor (log2)	[48]	5.14
same	PRISMA enrichment of interactor (log2)	[49]	6
EVPVPPPVPPRRRP [SOS1_WT_2]	PRISMA enrichment of interactor (log2)	[1]	4.93
same	PRISMA enrichment of interactor (log2)	[50]	6.02
